Results published in the supplement of paper PMC10849652.
The other results are listed elsewhere or left out.

By UniProt entry, the sequences of proteins in these tests, tags left out. Where a name states a change or a piece, a line headed by the entry shows the natural chain unless it says otherwise.
UniProt Q03933: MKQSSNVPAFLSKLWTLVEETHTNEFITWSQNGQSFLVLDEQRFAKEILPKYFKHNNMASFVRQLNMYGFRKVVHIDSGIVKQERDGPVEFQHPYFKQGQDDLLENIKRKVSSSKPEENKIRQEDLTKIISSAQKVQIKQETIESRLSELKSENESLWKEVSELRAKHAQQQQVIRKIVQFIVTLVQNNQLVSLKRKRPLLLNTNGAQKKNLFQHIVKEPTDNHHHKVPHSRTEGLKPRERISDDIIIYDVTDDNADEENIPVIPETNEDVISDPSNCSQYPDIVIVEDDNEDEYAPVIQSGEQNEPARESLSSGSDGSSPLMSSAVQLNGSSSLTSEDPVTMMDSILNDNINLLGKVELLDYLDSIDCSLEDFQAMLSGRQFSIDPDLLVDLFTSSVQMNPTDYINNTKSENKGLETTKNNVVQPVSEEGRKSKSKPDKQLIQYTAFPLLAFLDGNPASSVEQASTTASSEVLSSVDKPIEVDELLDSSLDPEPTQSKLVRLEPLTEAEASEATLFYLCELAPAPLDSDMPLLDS
UniProt Q9NSC5: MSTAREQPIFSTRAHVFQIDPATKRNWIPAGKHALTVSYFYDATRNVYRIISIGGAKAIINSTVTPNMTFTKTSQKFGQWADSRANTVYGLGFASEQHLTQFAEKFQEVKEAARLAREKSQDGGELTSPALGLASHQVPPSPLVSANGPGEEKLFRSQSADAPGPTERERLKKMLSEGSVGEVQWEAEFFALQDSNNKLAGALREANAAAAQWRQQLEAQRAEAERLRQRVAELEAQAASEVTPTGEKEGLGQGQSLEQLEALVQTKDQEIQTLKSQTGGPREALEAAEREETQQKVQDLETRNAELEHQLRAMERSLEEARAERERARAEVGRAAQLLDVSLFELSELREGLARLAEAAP
UniProt P15428: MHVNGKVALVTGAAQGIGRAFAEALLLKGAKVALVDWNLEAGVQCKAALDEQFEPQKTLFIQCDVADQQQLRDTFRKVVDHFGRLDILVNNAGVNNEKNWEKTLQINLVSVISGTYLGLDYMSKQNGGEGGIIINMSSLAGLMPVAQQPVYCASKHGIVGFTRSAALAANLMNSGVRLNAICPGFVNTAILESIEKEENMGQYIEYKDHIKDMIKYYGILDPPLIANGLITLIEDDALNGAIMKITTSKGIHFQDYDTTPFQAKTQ
UniProt Q15011: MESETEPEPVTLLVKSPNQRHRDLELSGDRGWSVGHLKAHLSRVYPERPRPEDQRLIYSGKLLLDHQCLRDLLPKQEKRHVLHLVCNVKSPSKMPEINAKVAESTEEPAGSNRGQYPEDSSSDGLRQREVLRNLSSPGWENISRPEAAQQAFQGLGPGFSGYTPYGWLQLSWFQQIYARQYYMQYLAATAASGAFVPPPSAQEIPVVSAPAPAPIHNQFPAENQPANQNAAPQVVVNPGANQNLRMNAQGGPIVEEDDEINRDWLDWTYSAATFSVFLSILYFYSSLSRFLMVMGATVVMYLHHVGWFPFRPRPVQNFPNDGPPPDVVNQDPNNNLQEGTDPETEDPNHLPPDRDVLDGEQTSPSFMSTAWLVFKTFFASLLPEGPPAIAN
UniProt Q96ED9: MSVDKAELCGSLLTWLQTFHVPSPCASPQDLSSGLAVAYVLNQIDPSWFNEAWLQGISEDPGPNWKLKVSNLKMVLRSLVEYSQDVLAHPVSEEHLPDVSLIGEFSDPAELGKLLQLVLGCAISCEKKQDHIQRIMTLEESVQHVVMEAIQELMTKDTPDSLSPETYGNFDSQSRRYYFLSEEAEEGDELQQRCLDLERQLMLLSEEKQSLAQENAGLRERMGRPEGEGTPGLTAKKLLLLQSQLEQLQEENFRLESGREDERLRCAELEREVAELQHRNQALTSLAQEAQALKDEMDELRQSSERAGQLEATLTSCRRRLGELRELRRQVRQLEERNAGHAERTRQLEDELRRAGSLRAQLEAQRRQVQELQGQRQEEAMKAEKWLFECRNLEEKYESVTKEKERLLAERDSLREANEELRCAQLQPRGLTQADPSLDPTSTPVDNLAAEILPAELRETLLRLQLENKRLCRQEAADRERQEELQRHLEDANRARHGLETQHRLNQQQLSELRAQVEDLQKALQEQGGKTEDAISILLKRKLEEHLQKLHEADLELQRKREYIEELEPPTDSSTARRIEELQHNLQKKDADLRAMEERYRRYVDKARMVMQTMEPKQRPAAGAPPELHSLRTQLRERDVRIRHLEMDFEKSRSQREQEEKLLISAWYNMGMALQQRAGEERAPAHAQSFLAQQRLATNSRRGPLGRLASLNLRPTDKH
UniProt Q86YV9: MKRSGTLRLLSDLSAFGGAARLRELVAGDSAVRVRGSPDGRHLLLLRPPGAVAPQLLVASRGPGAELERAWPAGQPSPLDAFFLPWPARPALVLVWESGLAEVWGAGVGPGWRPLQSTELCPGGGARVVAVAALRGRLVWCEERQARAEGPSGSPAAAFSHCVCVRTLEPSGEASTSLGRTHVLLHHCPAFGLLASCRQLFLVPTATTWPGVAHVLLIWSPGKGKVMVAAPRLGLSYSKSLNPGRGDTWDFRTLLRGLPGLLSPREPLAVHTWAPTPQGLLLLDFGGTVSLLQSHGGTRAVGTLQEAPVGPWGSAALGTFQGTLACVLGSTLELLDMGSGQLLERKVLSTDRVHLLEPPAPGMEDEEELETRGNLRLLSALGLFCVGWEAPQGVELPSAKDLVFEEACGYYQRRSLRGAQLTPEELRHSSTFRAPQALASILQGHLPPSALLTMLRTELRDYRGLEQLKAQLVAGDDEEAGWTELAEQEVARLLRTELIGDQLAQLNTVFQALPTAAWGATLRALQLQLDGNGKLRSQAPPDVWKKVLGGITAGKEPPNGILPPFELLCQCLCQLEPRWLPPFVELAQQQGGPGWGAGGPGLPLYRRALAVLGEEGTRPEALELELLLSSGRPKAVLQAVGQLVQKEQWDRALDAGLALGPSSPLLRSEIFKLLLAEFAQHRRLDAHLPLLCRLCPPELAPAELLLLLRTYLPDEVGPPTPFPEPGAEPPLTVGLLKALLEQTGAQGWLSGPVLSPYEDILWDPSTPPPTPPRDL
UniProt Q9UJC3, whole entry, looked up: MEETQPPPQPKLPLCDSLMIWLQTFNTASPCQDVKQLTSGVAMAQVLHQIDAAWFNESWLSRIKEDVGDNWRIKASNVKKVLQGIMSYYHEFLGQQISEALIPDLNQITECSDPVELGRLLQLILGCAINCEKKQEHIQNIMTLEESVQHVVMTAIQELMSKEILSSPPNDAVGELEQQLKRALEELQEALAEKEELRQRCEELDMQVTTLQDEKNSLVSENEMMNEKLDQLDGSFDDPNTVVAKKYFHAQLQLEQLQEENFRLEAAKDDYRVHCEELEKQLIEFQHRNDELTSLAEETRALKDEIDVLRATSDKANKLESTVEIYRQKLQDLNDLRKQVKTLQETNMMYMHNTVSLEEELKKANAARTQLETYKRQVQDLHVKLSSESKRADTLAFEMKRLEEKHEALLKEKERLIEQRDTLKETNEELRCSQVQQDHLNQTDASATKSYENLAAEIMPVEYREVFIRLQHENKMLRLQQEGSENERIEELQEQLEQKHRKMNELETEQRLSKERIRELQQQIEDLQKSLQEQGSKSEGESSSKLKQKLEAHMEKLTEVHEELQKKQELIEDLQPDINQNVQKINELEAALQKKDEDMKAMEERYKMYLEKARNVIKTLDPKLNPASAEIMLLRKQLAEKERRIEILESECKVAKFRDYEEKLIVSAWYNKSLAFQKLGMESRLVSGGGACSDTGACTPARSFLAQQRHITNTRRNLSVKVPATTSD
UniProt P42694: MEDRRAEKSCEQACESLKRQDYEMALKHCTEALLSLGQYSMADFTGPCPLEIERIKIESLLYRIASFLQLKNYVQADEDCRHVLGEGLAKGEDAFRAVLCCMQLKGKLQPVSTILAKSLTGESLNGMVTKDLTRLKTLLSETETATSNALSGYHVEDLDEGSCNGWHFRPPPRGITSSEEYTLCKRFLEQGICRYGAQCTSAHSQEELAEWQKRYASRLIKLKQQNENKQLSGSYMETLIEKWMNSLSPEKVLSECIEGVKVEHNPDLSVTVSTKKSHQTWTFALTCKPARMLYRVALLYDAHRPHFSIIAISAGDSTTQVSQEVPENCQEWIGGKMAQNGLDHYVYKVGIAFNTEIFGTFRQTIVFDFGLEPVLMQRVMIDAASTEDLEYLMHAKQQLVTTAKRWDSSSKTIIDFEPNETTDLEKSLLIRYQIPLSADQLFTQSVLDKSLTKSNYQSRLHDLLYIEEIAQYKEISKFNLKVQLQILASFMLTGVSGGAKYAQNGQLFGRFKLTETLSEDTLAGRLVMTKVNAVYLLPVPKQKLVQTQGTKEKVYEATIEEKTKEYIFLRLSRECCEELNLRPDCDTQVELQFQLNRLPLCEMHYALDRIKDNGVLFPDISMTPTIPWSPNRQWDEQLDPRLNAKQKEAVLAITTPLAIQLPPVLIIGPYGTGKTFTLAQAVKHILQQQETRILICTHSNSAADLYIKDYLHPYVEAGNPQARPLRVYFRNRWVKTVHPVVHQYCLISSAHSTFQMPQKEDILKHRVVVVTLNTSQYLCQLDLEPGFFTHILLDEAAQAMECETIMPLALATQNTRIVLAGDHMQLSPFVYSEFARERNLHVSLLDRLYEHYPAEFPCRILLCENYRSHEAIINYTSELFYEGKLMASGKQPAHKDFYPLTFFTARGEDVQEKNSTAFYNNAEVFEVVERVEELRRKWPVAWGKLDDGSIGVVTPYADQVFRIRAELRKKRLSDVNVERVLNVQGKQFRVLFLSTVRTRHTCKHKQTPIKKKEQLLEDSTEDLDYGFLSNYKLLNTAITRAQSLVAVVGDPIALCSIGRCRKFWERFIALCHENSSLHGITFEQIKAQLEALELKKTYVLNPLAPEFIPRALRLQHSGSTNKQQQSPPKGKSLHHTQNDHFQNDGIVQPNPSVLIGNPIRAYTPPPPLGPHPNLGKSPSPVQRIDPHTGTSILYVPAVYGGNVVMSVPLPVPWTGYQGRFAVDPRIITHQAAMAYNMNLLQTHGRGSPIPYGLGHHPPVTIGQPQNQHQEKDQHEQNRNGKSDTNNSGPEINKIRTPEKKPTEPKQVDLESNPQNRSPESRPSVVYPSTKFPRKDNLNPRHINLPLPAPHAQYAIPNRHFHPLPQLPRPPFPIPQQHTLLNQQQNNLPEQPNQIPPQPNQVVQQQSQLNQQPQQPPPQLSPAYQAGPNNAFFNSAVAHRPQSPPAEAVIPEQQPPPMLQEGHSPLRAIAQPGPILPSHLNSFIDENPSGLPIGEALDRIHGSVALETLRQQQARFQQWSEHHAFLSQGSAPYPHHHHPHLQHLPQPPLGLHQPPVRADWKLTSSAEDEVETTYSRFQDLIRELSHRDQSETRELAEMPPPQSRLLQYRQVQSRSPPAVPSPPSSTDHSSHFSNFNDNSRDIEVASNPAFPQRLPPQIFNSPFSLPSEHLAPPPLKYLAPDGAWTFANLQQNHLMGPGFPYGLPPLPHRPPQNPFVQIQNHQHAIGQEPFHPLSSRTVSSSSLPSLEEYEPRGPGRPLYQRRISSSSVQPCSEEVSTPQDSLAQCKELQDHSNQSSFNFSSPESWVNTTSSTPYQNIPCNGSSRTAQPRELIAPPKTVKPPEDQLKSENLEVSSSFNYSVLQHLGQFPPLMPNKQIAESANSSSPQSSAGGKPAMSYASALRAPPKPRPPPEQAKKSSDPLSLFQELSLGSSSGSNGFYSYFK
UniProt P00738: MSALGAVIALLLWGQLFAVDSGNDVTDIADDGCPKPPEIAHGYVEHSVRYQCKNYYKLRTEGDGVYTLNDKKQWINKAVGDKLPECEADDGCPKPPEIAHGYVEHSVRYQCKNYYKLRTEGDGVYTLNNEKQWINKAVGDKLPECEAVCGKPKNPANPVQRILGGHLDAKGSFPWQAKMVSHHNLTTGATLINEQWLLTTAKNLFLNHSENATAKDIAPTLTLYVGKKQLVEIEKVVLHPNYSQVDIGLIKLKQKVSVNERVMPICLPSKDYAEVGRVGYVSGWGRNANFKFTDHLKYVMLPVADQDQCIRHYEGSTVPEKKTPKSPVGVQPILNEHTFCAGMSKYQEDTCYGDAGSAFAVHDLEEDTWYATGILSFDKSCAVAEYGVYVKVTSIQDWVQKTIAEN
UniProt Q9BTY7: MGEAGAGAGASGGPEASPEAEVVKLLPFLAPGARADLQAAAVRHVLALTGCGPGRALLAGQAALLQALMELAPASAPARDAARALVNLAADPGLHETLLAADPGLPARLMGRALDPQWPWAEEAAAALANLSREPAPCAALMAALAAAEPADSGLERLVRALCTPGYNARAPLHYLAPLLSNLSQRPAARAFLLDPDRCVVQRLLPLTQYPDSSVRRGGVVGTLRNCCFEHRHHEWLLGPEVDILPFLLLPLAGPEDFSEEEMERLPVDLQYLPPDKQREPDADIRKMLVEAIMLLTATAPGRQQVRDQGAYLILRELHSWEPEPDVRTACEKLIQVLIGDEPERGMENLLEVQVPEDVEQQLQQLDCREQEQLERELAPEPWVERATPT

What follows are targets tested with c1ccc([C@@H]2C[C@H]2NC2CCNCC2)cc1 (assay: log2 fold change, soluble protein after heating vs DMSO (PISA); higher = thermal stabilisation; K562 lysate, 10 uM; active = over 0.2 and 3.5 SD of the protein, either way, in both replicates (recomputed)).
Summary of the method: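 Log-two fold change in thermal stability relative to solvent controls is reported from duplicates. For each sample, crude K562 extract from dounce-homogenised pellets in PBS pH 7.4 with 1 mM MgCl2, at 1 mg/mL protein, was treated with 10 μM compound for 30 min. Aliquots heated for 3 min across 48°C-58°C were pooled, brought to 0.5% NP-40 at 4°C and cleared at 21,000xg for 90 min. The supernatant was quantified by TMTpro 16plex LC-MS/MS with channel sums equalised.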

| Target | log2 fold change |
| --- | --- |
| HNRNPUL1 (UniProt M0R247) | inactive: -0.044 |
| HNRNPL (UniProt P14866) | inactive: 0.071 |
| HMCN1 (UniProt Q96RW7) | inactive: 0.146 |
| HSF2 (UniProt Q03933) | inactive: -0.056 |
| HM13 isoform 2 (UniProt Q8TCT9) | inactive: -0.035 |
| HOMER3 (UniProt Q9NSC5) | inactive: 0 |
| HIGD2A (UniProt Q9BW72) | inactive: -0.049 |
| HGF (UniProt P14210) | inactive: 0.085 |
| HEXD isoform 2 (UniProt Q8WVB3) | inactive: -0.05 |
| HPGD (UniProt P15428) | inactive: 0.232 |
| HNRNPD isoform 3 (UniProt Q14103) | inactive: -0.003 |
| HERPUD1 (UniProt Q15011) | inactive: -0.022 |
| HMBS (UniProt P08397) | inactive: 0.031 |
| HEBP2 (UniProt Q9Y5Z4) | inactive: 0.039 |
| HOOK2 (UniProt Q96ED9) | inactive: 0.16 |
| HNMT (UniProt P50135) | inactive: -0.118 |
| HES1 (UniProt Q14469) | inactive: -0.097 |
| HPS6 (UniProt Q86YV9) | inactive: 0.122 |
| HOOK1 (UniProt Q9UJC3) | inactive: -0.211 |
| HELZ (UniProt P42694) | inactive: -0.047 |
| HMGA1 isoform 2 (UniProt P17096) | inactive: 0.419 |
| HMGN4 (UniProt O00479) | inactive: 0.513 |
| HIGD1A isoform 2 (UniProt Q9Y241) | inactive: 0.049 |
| HP (UniProt P00738) | inactive: -0.069 |
| HMGN3 (UniProt Q15651) | inactive: -0.086 |
| HGFAC (UniProt Q04756) | inactive: -0.158 |
| HIRA (UniProt P54198) | inactive: -0.039 |
| HPS3 (UniProt Q969F9) | inactive: 0.105 |
| HGH1 (UniProt Q9BTY7) | inactive: 0.046 |
| HSP90B1 (UniProt P14625) | inactive: 0.016 |

9 entries from above, bar-delimited.
Target | log2 fold change
HM13 isoform 2 (UniProt Q8TCT9) | inactive: -0.035
HOMER3 (UniProt Q9NSC5) | inactive: 0
HPGD (UniProt P15428) | inactive: 0.232
HMBS (UniProt P08397) | inactive: 0.031
HEBP2 (UniProt Q9Y5Z4) | inactive: 0.039
HOOK2 (UniProt Q96ED9) | inactive: 0.16
HOOK1 (UniProt Q9UJC3) | inactive: -0.211
HMGN4 (UniProt O00479) | inactive: 0.513
HSP90B1 (UniProt P14625) | inactive: 0.016
